Taken from: PubChem BioAssay AID504804 (Drosophila RNAi Screening Center, 2011)
Assay: 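Knock-downs shielding fly cells from apoptosis caused by DNA damage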 (primary screen). Cells: Drosophila Kc cells. Reagents: long dsRNA against Drosophila genes, 0.5 µg dsRNA per well. Time to read-out: 96 h (48 h knock-down, then 48 h drug). Challenge: doxorubicin 5 µg/ml for 48 h, added 48 h after dsRNA. Measurement: 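Viability measured as cellular ATP by luminescence after 48 h knock-down then 48 h doxorubicin at 5 µg/ml; unnormalised plate counts for each replicate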. Scale: raw ATP luminescence: higher = more viable cells, protection from doxorubicin. Rule for the call: 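z-score of 2 or more over plate mean in both duplicates, retained only when retests and separate dsRNAs confirm the protection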.
The screen tested about 19,000 reagents; below is a random part of those that have a named target and a result. Of all reagents, 47 (0.25%) are marked active. 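Signals are raw, not normalised; exact z-scores behind calls not deposited; actives needed confirmation, so some wells reaching 2 SD are inactive.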 Unmarked entries are inactive.

For CG42365 [DRSC04266], what was measured?
raw ATP luminescence, replicate 1: 66390; raw ATP luminescence, replicate 2: 68070

What did the screen give for fos28F (retired record) [DRSC03391]?
raw ATP luminescence, replicate 1: 39327; raw ATP luminescence, replicate 2: 64067

With CG8916 [DRSC20120], how do the results read?
raw ATP luminescence, replicate 1: 2.99e5; raw ATP luminescence, replicate 2: 3.15e5

Which result is listed for RpS24 [DRSC04414]?
raw ATP luminescence, replicate 1: 32880; raw ATP luminescence, replicate 2: 26537

With CG14118 [DRSC10122], what was measured?
raw ATP luminescence, replicate 1: 91203; raw ATP luminescence, replicate 2: 80077

For CtIP [DRSC11785], what does the deposit list?
raw ATP luminescence, replicate 1: 72093; raw ATP luminescence, replicate 2: 62187

For CG8173 [DRSC20088], how do the results read?
raw ATP luminescence, replicate 1: 3.01e5; raw ATP luminescence, replicate 2: 3.04e5

With CG33322 [DRSC03204], what was measured?
raw ATP luminescence, replicate 1: 71507; raw ATP luminescence, replicate 2: 61143

How did the screen score brv1 [DRSC11076]?
raw ATP luminescence, replicate 1: 70503; raw ATP luminescence, replicate 2: 84177

What did the screen give for CG14654 (retired record) [DRSC12240]?
raw ATP luminescence, replicate 1: 72830; raw ATP luminescence, replicate 2: 61590

What did the screen give for Prx2 [DRSC20256]?
raw ATP luminescence, replicate 1: 3.45e5; raw ATP luminescence, replicate 2: 2.93e5

What did the screen give for CG7142 [DRSC16204]?
raw ATP luminescence, replicate 1: 70580; raw ATP luminescence, replicate 2: 86610

What is on record for CR14117 [DRSC10121]?
raw ATP luminescence, replicate 1: 85707; raw ATP luminescence, replicate 2: 74583

With CG8188 [DRSC20090], what was measured?
raw ATP luminescence, replicate 1: 3.74e5; raw ATP luminescence, replicate 2: 3.04e5

Laid out differently: entries from further up.
CG8173 [DRSC20088]
- raw ATP luminescence, replicate 1: 3.01e5
- raw ATP luminescence, replicate 2: 3.04e5

CG33322 [DRSC03204]
- raw ATP luminescence, replicate 1: 71507
- raw ATP luminescence, replicate 2: 61143

brv1 [DRSC11076]
- raw ATP luminescence, replicate 1: 70503
- raw ATP luminescence, replicate 2: 84177

Next entries follow.
Which result is listed for CG42570 [DRSC09391]?
raw ATP luminescence, replicate 1: 58817; raw ATP luminescence, replicate 2: 1.00e5

For loj [DRSC09791], what does the deposit list?
raw ATP luminescence, replicate 1: 47913; raw ATP luminescence, replicate 2: 52637

For CG4681 [DRSC04481], what does the deposit list?
raw ATP luminescence, replicate 1: 49543; raw ATP luminescence, replicate 2: 45577

For CG31717 [DRSC01121], what was measured?
raw ATP luminescence, replicate 1: 3.01e5; raw ATP luminescence, replicate 2: 3.06e5

For Zip102B [DRSC17155], what does the deposit list?
raw ATP luminescence, replicate 1: 75070; raw ATP luminescence, replicate 2: 53000

With ppk10 [DRSC01123], how do the results read?
raw ATP luminescence, replicate 1: 3.28e5; raw ATP luminescence, replicate 2: 3.33e5

With CG5334 [DRSC19941], what does the deposit list?
raw ATP luminescence, replicate 1: 4.06e5; raw ATP luminescence, replicate 2: 3.76e5

With Ttc30 [DRSC01300], what was measured?
raw ATP luminescence, replicate 1: 3.03e5; raw ATP luminescence, replicate 2: 3.30e5

What did the screen give for Ttc30 [DRSC02818]?
raw ATP luminescence, replicate 1: 65387; raw ATP luminescence, replicate 2: 76440

What did the screen give for Cyp6a22 [DRSC07382]?
raw ATP luminescence, replicate 1: 59827; raw ATP luminescence, replicate 2: 63270

Which result is listed for Cks30A [DRSC03292]?
raw ATP luminescence, replicate 1: 85833; raw ATP luminescence, replicate 2: 61600

For CanB [DRSC18449], how do the results read?
raw ATP luminescence, replicate 1: 40110; raw ATP luminescence, replicate 2: 62820

How did the screen score Ugt37A1 [DRSC02114]?
raw ATP luminescence, replicate 1: 58993; raw ATP luminescence, replicate 2: 47787

With CG16704 [DRSC00475], what was measured?
raw ATP luminescence, replicate 1: 26527; raw ATP luminescence, replicate 2: 39200
